These are yes or no findings as the source states them, for the method shown. Some results given as binding are weak or reduced against the parent protein; the word gives no strength. Tags and fused reporters may be left off the sequences shown.
T1: RapZ, BACTH fusion (T18 or T25) (Escherichia coli) (UniProt P0A894)
T1 sequence: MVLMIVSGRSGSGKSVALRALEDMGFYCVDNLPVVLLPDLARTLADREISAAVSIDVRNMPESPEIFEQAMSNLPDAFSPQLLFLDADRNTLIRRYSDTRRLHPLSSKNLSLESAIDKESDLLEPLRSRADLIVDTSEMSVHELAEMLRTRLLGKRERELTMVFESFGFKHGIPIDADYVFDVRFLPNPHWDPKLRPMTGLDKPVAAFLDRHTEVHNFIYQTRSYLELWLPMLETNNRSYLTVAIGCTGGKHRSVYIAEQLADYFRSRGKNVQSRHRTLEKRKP

T2: RapZ Asp182Ala (full-length), BACTH fusion (Escherichia coli) (UniProt P0A894)
T2 sequence: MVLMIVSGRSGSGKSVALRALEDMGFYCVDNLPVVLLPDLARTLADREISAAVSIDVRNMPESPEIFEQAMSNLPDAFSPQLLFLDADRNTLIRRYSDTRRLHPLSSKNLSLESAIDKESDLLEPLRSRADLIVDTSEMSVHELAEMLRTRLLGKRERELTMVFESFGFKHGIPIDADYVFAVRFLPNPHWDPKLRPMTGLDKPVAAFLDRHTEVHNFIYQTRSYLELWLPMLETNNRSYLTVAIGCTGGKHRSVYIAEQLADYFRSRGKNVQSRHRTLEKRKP


Legend:
[1] = biological target: T1, RapZ, BACTH fusion (T18 or T25) (Escherichia coli); test: two-hybrid; bacterial adenylate cyclase-based two-hybrid (BACTH); T18 and T25 fusions from pUT18C and pKT25 derivatives in E. coli reporter strain RH785 (MG1655::cyaA derivative) or BTH101, also in a derivative lacking the endogenous qseEGF operon; grown at 28°C with 1 mM IPTG to stationary phase; read-out β-galactosidase activity
[2] = biological target: T2, RapZ Asp182Ala (full-length), BACTH fusion (Escherichia coli); test: as above

Binder | binding [1] | binding [2]
QseE, BACTH fusion (T18 or T25) (protein, UniProt P52101 1-475) MKRWPVFPRSLRQLVMLAFLLILLPLLVLAWQAWQSLNALSDQAALVNRTTLIDARRSEAMTNAALEMERSYRQYCVLDDPTLAKVYQSQRKRYSEMLDAHAGVLPDDKLYQALRQDLHNLAQLQCNNSGPDAAAAARLEAFASANTEMVQATRTVVFSRGQQLQREIAERGQYFGWQSLVLFLVSLVMVLLFTRMIIGPVKNIERMINRLGEGRSLGNSVSFSGPSELRSVGQRILWLSERLSWLESQRHQFLRHLSHELKTPLASMREGTELLADQVVGPLTPEQKEVVSILDSSSRNLQKLIEQLLDYNRKQADSAVELENVELAPLVETVVSAHSLPARAKMMHTDVDLKATACLAEPMLLMSVLDNLYSNAVHYGAESGNICLRSSLHGARVYIDVINTGTPIPQEERAMIFEPFFQGSHQRKGAVKGSGLGLSIARDCIRRMQGELYLVDESGQDVCFRIELPSSKNTK | binds | no binding
QseF, BACTH fusion (T18 or T25) (protein, UniProt P0AFU4 1-444) MSHKPAHLLLVDDDPGLLKLLGLRLTSEGYSVVTAESGAEGLRVLNREKVDLVISDLRMDEMDGMQLFAEIQKVQPGMPVIILTAHGSIPDAVAATQQGVFSFLTKPVDKDALYQAIDDALEQSAPATDERWREAIVTRSPLMLRLLEQARLVAQSDVSVLINGQSGTGKEIFAQAIHNASPRNSKPFIAINCGALPEQLLESELFGHARGAFTGAVSNREGLFQAAEGGTLFLDEIGDMPAPLQVKLLRVLQERKVRPLGSNRDIDINVRIISATHRDLPKAMARGEFREDLYYRLNVVSLKIPALAERTEDIPLLANHLLRQAAERHKPFVRAFSTDAMKRLMTASWPGNVRQLVNVIEQCVALTSSPVISDALVEQALEGENTALPTFVEARNQFELNYLRKLLQITKGNVTHAARMAGRNRTEFYKLLSRHELDANDFKE | binds | no binding

— article PMC7073468, “Small RNA‐binding protein RapZ mediates cell envelope precursor sensing and signaling in Escherichia coli” (The EMBO Journal, 2020)
